{"source": "patent US11116765B2", "about": "(GRIFOLS, S.A., priority 2014, dated 2021)", "origin": "cited, not measured here", "test_system": "M. avium", "settings": "incubation of M. avium with antibiotic; cited from earlier work", "note": "At least one compound was matched to its structure with a doubt left."}
{"smiles": "COc1c(N2C[C@@H]3CCCN[C@@H]3C2)c(F)cc2c(=O)c(C(=O)O)cn(C3CC3)c12", "note": "[moxifloxacin]", "values": [{"measurement": "effect on M. avium biofilm formation", "value": "no effect on biofilm"}]}
